Measurements taken from PMC8099431.
No constants are given. Whether binding was seen depends on the method and setting. Binding seen in cells or lysates may run through a third protein. Some results given as binding are weak or reduced against the parent protein; the word gives no strength. Sequences can lack the tags named with a protein.

T1: PAN-1::HA::His (full-length pan-1b in pcDNA3.1) (C. elegans) (UniProt Q9U3A0)
T1 sequence: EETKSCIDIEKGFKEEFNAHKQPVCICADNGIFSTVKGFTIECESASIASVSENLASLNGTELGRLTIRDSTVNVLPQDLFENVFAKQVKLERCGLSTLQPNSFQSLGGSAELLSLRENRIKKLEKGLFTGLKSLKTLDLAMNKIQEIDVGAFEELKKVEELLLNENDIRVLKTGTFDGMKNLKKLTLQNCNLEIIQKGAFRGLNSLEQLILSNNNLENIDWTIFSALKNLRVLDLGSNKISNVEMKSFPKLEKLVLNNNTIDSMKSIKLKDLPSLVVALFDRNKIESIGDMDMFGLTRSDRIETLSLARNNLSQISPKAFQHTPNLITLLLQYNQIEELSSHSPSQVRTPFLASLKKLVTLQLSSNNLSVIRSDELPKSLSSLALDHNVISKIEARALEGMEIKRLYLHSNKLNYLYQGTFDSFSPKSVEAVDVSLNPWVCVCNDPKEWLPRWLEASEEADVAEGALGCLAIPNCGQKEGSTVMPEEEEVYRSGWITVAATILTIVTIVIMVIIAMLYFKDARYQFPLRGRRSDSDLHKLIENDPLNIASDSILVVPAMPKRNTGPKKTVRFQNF

B1: V5::MYRF-1::3xFlag (full-length myrf-1, pQA1228) (protein, UniProt G5EFI7 1-931)
chain: MSSSDLLKGEFDGLNSEHFNMMQYLTQDTDEDDGSMVSPTSSADSMHQNLGVQQQQQQMLQAQQRQNQNGIFQPRRFPESPAMTDPCGNVSSSSSSSHHSDPMFSPNEFNGYAGANDNGNQTMNNIQSQQLSQQQHQQTRGGNLMMPQQSSIHAQMQNMNAPQFWSQPGTAAVNQPTNTLAQLNLFNIIRGGADSGMPSPVLEMPRKRSRLDTPCETPRIAPSFAGIDGFPDENYSQQQAIRFSKFQEEQWSPLYDINAQPLQQLQVHVVADKGFNYNSNDNCFVNQKKNHFQISVNVEASDTMPPKYVNFNNRLVPIRDFKLSFCGVKAEMPSSEITIRQSRADRKPHTHTPVLFEIQERRMTKVCVPRLHFSETTLNNQRKQKNRPNPEQKFFLLVVRLFASIDESEHGVLIQSYASEKVIVRATNPGSFEPQDTDIGWQRNGGALYTQGAVSVGTEHQVESAKLTVAGDIYMSGRIINPSDIRLKEAITERETAEAIENLLKLRVVDYRYKPEVADIWGLDEQQRHRTGLIAQELQAVLPDAVRDIGDYLTIDEGRVFYETVMATQQLCRMTGDLDSKIDEKVAEISRRLNEYAVRKKLASSMASNLNGDNKSLSYSRCSLTSTATNATSQPKRSRKHRAIKQAQSCGSRLSQGTVVTLVSIMAACLLAMSALYVLDWHNRNYGYHQHFETNTPSTKGELANLVISPANFMPSFQPDAPILLEKCFNPSCKTYCCTDTPPVVEDSRAIATHGLDNGDEVYPESPSNRTNGIARAPNLEHMAFETGVEIRIPALNVTLDQRYCVERSCNKRKGIFNVFVPVSRYMPDVALEIEIKAPISKVVSNCGAFPSTEFNHKVCPLSRTQQSESPVPTSTRLFDNIFELSMGSFIQSAYRFRVGYSTETCFSEDSNGSYEEYNLIFYRMCTLSSS
B2: 6xHis::3xFlag::myrf-1 (1–482) (pQA1250) (domain or fragment, UniProt G5EFI7 1-482)
chain: MSSSDLLKGEFDGLNSEHFNMMQYLTQDTDEDDGSMVSPTSSADSMHQNLGVQQQQQQMLQAQQRQNQNGIFQPRRFPESPAMTDPCGNVSSSSSSSHHSDPMFSPNEFNGYAGANDNGNQTMNNIQSQQLSQQQHQQTRGGNLMMPQQSSIHAQMQNMNAPQFWSQPGTAAVNQPTNTLAQLNLFNIIRGGADSGMPSPVLEMPRKRSRLDTPCETPRIAPSFAGIDGFPDENYSQQQAIRFSKFQEEQWSPLYDINAQPLQQLQVHVVADKGFNYNSNDNCFVNQKKNHFQISVNVEASDTMPPKYVNFNNRLVPIRDFKLSFCGVKAEMPSSEITIRQSRADRKPHTHTPVLFEIQERRMTKVCVPRLHFSETTLNNQRKQKNRPNPEQKFFLLVVRLFASIDESEHGVLIQSYASEKVIVRATNPGSFEPQDTDIGWQRNGGALYTQGAVSVGTEHQVESAKLTVAGDIYMSGRIINP

Molecular target: T1, PAN-1::HA::His (full-length pan-1b in pcDNA3.1) (C. elegans)
Experiment: co-IP; both proteins co-expressed in HEK293T cells; lysis in 50 mM Tris pH 7.4, 150 mM NaCl, 1% NP40, 0.25% sodium taurodeoxycholate, 1 mM EDTA; rabbit anti-HA overnight at 4°C, Dynabeads protein A; western blot with murine anti-HA, anti-V5 or anti-Flag

| Binder | binding |
| --- | --- |
| B1 | binds |
| B2 | no binding |
